Data as given in the supplement of paper PMC10849652.
The other results are listed elsewhere or left out.

Protein sequences, listed by entry. Tags and fused reporters are not part of them. Lines headed by an entry give the natural chain unless they say otherwise; changes in a name come on top.
UniProt Q15633: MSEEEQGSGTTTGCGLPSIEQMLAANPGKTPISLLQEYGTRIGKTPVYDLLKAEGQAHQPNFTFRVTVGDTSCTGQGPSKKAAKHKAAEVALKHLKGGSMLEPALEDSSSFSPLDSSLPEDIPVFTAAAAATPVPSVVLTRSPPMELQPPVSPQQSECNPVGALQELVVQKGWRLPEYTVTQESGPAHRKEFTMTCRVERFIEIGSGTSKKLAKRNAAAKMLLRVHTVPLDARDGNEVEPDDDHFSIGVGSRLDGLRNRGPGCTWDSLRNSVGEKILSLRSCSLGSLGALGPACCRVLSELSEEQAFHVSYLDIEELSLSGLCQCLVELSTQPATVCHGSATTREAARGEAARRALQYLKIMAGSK
UniProt Q7Z7C8, whole entry, looked up: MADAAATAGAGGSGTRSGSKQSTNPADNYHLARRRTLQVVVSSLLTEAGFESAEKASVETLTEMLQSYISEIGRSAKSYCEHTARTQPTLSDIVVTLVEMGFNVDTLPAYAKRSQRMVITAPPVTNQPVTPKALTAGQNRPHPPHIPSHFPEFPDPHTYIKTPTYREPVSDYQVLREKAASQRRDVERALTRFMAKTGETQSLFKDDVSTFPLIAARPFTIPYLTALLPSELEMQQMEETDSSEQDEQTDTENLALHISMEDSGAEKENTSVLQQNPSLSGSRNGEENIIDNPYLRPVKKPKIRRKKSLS
UniProt Q9P0N9: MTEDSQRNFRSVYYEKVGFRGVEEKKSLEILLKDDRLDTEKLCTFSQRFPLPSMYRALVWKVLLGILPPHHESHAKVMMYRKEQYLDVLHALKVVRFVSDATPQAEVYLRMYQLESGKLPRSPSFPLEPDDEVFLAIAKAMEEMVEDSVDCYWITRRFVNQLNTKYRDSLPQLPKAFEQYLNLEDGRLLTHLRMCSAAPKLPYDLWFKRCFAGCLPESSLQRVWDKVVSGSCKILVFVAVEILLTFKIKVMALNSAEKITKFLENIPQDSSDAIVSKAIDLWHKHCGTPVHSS
UniProt Q9HA65: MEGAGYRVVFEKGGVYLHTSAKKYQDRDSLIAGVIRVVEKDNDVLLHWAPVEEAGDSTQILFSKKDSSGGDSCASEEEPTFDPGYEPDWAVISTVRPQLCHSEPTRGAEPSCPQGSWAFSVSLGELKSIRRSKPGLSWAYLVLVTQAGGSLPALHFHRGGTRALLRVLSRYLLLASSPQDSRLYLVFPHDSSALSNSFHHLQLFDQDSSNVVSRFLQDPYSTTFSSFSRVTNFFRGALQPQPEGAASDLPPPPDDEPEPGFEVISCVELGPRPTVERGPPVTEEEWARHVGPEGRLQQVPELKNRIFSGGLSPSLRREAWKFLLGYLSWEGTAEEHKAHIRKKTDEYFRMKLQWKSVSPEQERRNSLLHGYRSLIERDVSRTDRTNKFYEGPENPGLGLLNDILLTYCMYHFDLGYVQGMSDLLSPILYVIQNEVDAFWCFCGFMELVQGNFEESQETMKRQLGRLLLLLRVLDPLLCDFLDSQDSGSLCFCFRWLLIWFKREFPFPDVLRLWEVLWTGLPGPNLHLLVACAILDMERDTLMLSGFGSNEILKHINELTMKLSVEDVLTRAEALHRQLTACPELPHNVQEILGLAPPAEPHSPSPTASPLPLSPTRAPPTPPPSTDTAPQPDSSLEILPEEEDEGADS
UniProt Q9UL54: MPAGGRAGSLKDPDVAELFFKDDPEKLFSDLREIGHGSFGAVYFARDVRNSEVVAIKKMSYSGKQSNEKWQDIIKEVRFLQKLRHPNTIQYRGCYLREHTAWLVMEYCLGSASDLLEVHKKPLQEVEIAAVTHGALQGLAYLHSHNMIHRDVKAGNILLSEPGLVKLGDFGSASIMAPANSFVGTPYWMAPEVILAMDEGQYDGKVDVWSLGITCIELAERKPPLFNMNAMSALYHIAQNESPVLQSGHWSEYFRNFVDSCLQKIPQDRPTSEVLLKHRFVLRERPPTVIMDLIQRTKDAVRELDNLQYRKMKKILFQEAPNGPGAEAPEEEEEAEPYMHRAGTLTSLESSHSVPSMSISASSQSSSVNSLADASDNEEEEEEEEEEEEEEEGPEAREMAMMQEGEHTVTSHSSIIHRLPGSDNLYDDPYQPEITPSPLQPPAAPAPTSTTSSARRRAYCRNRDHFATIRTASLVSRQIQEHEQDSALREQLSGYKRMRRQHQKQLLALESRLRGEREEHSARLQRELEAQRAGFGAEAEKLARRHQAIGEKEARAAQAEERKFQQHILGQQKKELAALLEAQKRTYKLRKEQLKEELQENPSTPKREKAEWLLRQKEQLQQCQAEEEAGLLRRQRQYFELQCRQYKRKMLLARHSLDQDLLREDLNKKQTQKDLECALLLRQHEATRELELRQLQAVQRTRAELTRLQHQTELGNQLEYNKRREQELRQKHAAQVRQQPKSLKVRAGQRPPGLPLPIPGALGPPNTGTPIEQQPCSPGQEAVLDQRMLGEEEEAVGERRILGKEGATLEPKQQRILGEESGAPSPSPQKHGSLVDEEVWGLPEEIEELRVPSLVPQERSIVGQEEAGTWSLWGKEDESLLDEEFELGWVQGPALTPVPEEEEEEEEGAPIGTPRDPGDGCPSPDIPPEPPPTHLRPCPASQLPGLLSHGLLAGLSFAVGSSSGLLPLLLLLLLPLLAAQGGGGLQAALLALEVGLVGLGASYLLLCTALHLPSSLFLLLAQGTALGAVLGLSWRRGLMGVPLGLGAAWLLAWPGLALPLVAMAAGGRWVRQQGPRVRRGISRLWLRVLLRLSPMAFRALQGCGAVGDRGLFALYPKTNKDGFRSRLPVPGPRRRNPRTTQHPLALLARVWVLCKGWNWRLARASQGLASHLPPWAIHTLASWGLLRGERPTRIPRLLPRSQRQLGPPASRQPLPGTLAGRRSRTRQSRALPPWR
UniProt Q9Y6I9: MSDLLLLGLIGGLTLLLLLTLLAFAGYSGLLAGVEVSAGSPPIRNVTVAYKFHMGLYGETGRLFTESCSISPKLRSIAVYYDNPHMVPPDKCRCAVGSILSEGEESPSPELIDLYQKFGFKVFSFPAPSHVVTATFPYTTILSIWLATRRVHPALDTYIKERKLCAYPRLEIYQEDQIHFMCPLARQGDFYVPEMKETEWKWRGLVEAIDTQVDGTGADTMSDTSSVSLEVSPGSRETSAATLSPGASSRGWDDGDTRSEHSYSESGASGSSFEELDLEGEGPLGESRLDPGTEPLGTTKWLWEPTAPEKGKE
UniProt Q8NFU7: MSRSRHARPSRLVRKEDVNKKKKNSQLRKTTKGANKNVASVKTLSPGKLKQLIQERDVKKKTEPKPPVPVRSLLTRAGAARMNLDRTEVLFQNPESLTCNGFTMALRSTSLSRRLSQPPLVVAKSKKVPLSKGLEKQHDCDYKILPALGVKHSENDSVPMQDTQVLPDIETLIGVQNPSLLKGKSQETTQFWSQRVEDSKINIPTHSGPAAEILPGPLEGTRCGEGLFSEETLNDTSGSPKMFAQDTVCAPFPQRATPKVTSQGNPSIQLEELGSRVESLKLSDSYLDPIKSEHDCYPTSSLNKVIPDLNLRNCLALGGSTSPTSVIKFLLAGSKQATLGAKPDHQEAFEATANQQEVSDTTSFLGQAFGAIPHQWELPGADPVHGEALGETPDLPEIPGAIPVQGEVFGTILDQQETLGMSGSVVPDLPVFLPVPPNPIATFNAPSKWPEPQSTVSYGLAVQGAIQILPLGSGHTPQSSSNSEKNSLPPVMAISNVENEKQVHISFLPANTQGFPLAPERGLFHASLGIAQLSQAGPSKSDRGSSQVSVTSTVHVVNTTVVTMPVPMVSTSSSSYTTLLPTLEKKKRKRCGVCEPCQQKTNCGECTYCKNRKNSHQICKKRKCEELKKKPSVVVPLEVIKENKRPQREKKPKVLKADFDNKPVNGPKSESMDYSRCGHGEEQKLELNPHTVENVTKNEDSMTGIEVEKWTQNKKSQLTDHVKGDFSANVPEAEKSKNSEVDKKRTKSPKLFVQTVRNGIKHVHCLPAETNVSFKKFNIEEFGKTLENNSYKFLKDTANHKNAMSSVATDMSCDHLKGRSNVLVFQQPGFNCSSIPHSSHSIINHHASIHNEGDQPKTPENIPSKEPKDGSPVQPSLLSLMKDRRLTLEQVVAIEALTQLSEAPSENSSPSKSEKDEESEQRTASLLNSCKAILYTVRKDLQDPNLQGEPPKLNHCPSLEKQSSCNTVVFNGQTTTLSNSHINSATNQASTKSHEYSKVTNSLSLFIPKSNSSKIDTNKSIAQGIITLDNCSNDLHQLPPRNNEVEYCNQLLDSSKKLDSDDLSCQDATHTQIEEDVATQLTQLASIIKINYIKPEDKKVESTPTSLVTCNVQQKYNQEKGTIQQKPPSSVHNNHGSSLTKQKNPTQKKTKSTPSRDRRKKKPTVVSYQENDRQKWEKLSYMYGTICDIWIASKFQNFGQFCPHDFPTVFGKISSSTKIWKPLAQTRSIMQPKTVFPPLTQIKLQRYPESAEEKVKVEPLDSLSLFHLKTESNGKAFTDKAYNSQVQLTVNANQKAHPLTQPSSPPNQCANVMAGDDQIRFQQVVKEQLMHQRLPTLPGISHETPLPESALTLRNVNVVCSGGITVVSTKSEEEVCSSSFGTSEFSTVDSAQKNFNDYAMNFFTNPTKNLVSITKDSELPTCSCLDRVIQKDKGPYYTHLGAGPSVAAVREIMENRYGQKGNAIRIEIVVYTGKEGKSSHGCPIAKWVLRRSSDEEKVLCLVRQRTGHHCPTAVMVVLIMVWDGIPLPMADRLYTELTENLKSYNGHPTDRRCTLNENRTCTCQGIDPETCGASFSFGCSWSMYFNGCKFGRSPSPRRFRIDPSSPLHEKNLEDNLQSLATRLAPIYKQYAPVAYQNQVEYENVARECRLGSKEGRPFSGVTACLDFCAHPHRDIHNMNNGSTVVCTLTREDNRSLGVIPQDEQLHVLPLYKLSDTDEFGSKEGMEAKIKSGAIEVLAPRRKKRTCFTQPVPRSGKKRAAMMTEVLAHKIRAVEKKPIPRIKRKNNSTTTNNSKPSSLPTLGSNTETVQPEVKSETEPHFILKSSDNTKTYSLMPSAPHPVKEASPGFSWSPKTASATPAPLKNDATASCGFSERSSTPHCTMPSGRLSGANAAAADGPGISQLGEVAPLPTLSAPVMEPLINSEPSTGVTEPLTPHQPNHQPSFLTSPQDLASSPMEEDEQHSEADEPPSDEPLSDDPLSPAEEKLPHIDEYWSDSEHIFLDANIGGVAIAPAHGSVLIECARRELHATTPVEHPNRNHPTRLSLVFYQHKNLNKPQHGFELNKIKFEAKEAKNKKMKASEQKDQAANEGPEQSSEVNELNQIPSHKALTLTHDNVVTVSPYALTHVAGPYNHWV
UniProt P10646, whole entry, looked up: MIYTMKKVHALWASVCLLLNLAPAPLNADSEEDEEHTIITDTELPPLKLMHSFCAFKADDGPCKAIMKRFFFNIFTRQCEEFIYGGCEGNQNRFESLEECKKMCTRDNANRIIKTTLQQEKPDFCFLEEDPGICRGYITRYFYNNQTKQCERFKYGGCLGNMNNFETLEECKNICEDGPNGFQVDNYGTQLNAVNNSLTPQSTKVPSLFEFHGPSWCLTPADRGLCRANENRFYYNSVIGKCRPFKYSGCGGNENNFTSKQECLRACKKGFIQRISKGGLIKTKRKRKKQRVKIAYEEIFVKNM
UniProt Q9Y4R8, whole entry, looked up: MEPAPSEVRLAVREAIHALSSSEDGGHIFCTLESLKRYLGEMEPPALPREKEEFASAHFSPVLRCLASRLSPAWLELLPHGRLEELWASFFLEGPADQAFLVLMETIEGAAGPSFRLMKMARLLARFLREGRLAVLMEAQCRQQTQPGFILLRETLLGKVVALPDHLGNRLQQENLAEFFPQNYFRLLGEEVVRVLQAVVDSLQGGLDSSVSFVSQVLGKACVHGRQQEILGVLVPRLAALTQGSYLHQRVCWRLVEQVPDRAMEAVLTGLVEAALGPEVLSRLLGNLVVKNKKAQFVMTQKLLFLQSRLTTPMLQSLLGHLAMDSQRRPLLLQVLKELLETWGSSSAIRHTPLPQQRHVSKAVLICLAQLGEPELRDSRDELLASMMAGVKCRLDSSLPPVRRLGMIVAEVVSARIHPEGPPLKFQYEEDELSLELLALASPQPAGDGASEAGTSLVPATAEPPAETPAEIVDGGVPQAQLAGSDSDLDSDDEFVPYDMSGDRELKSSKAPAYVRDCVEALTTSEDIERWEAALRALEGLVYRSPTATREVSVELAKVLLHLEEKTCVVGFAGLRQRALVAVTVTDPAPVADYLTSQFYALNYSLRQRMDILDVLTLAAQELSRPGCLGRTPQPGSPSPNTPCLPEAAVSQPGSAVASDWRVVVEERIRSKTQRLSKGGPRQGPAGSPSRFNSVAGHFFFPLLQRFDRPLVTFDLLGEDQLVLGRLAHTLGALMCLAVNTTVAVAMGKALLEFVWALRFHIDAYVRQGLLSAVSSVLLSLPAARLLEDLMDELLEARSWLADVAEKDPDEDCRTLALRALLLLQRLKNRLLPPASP

Experiments:
Test in all cases: log2 fold change, soluble protein after heating vs DMSO (PISA); higher = thermal stabilisation; K562 lysate, 10 uM; active = over 0.2 and 3.5 SD of the protein, either way, in both replicates (recomputed)
vemurafenib = compound: CCCS(=O)(=O)Nc1ccc(F)c(C(=O)c2c[nH]c3ncc(-c4ccc(Cl)cc4)cc23)c1F [vemurafenib]
How it was run: (§1)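 The values are log-two fold changes in thermal stability compared with solvent controls and come from duplicates. They were obtained by TMTpro 16plex LC-MS/MS, with channel sums equalised, on the supernatant after 21,000xg for 90 min. That supernatant came from crude K562 extract at 1 mg/mL protein treated with 10 μM compound for 30 min, heated for 3 min across 48°C-58°C, pooled and brought to 0.5% NP-40 at 4°C.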

[1] = compound: CCCS(=O)(=O)Nc1ccc(F)c(C(=O)c2c[nH]c3ncc(Cl)cc23)c1F
How it was run: as §1

barasertib = compound: CCN(CCCOc1ccc2c(Nc3cc(CC(=O)Nc4cccc(F)c4)[nH]n3)ncnc2c1)CCOP(=O)(O)O [barasertib]
How it was run: as §1

[2] = compound: CC[C@@H]1C(=O)N(C)c2cnc(Nc3ccc(C(=O)NC4CCN(C)CC4)cc3OC)nc2N1C1CCCC1
How it was run: as §1

volasertib = compound: CC[C@@H]1C(=O)N(C)c2cnc(Nc3ccc(C(=O)N[C@H]4CC[C@H](N5CCN(CC6CC6)CC5)CC4)cc3OC)nc2N1C(C)C [volasertib]
How it was run: as §1

[3] = compound: CCn1c(C(=O)N(C2CC2)C2CC2)cc2c3c(ncn3C)c(Nc3cc(C)n(C)n3)nc21
How it was run: as §1

[4] = compound: CCn1cc(-c2ccnc3[nH]c(-c4cccc(CN(C)C)c4)cc23)c(-c2ccc(NC(=O)N(C)C)cc2)n1
How it was run: as §1

[5] = compound: CN1CCC(CNc2ccc3ncc(-c4cccc(OC(F)(F)F)c4)n3n2)CC1
How it was run: as §1

saracatinib = compound: CN1CCN(CCOc2cc(OC3CCOCC3)c3c(Nc4c(Cl)ccc5c4OCO5)ncnc3c2)CC1 [saracatinib]
How it was run: as §1

sotrastaurin = compound: CN1CCN(c2nc(C3=C(c4c[nH]c5ccccc45)C(=O)NC3=O)c3ccccc3n2)CC1 [sotrastaurin]
How it was run: as §1

alvocidib = compound: CN1CC[C@H](c2c(O)cc(O)c3c(=O)cc(-c4ccccc4Cl)oc23)[C@H](O)C1 [alvocidib]
How it was run: as §1

Tubastatin A = compound: CN1CCc2c(c3ccccc3n2Cc2ccc(C(=O)NO)cc2)C1 [Tubastatin A]
How it was run: as §1

[6] = compound: CNC(=O)C1=CC=CC=C1NC2=NC(=NC=C2Cl)NC3=C(C=C(C=C3)N4CCOCC4)OC
How it was run: as §1

defactinib = compound: CNC(=O)c1ccc(Nc2ncc(C(F)(F)F)c(NCc3nccnc3N(C)S(C)(=O)=O)n2)cc1 [defactinib]
How it was run: as §1

[7] = compound: CNc1nc(-c2ccc3c(N)n[nH]c3c2)cc(N2C[C@@H](C(=O)NC3CCCCC3)CC[C@H]2C)n1
How it was run: as §1

encorafenib = compound: COC(=O)N[C@@H](C)CNc1nccc(-c2cn(C(C)C)nc2-c2cc(Cl)cc(NS(C)(=O)=O)c2F)n1 [encorafenib]
How it was run: as §1

[8] = compound: COC(=O)[C@H](CCSC)NC(=O)C1=C(C=C(C=C1)NC[C@H](CS)N)C2=CC=CC=C2
How it was run: as §1

alisertib = compound: COc1cc(Nc2ncc3c(n2)-c2ccc(Cl)cc2C(c2c(F)cccc2OC)=NC3)ccc1C(=O)O [alisertib]
How it was run: as §1

[9] = compound: COc1cc2nc(-c3cc(F)ccc3O)nc(N[C@@H]3CNC[C@H]3C(C)(C)O)c2cc1OC
How it was run: as §1

gefitinib = compound: COc1cc2ncnc(Nc3ccc(F)c(Cl)c3)c2cc1OCCCN1CCOCC1 [gefitinib]
How it was run: as §1

Row | Target | log2 fold change (vemurafenib) | log2 fold change [1] | log2 fold change (barasertib) | log2 fold change [2] | log2 fold change (volasertib) | log2 fold change [3] | log2 fold change [4] | log2 fold change [5] | log2 fold change (saracatinib) | log2 fold change (sotrastaurin) | log2 fold change (alvocidib) | log2 fold change (Tubastatin A) | log2 fold change [6] | log2 fold change (defactinib) | log2 fold change [7] | log2 fold change (encorafenib) | log2 fold change [8] | log2 fold change (alisertib) | log2 fold change [9] | log2 fold change (gefitinib)
1 | TARBP2 (UniProt Q15633) | inactive: -0.035 | inactive: 0.092 | inactive: 0.093 | inactive: -0.145 | inactive: -0.034 | inactive: -0.016 | inactive: -0.02 | inactive: -0.093 | inactive: 0.035 | inactive: -0.006 | inactive: 0.016 | inactive: -0.147 | inactive: 0.038 | inactive: 0.017 | inactive: -0.026 | inactive: 0.037 | inactive: 0.072 | inactive: -0.039 | inactive: 0.008 | inactive: -0.01
2 | TAF8 isoform 2 (UniProt Q7Z7C8) | inactive: -0.053 | inactive: 0.02 | inactive: 0.117 | inactive: 0.038 | inactive: 0.013 | inactive: 0.006 | inactive: -0.096 | inactive: -0.017 | inactive: 0.014 | inactive: 0.021 | inactive: -0.003 | inactive: -0.007 | inactive: -0.068 | inactive: 0.029 | inactive: -0.035 | inactive: 0.055 | inactive: -0.019 | inactive: 0.011 | inactive: 0.029 | inactive: 0.038
3 | TFIP11 (UniProt Q9UBB9) | inactive: 0.017 | inactive: 0.025 | inactive: -0.09 | inactive: -0.018 | inactive: -0.059 | inactive: 0.048 | inactive: -0.027 | inactive: -0.037 | inactive: 0.018 | inactive: 0.027 | inactive: -0.013 | inactive: -0.135 | inactive: 0.024 | inactive: 0.061 | inactive: -0.023 | inactive: 0.042 | active: 0.381 | inactive: 0.062 | inactive: 0.013 | inactive: -0.041
4 | TBC1D7 (UniProt Q9P0N9) | inactive: -0.002 | inactive: -0.047 | inactive: 0.048 | inactive: 0.013 | inactive: -0.017 | inactive: -0.046 | inactive: -0.215 | inactive: 0.11 | inactive: 0.032 | inactive: 0.034 | inactive: 0.018 | inactive: -0.012 | inactive: -0.011 | inactive: 0.063 | inactive: -0.038 | inactive: -0.007 | inactive: 0.003 | inactive: -0.02 | inactive: 0.051 | inactive: -0.251
5 | TBC1D17 (UniProt Q9HA65) | inactive: -0.086 | inactive: 0.038 | inactive: 0.007 | inactive: -0.114 | inactive: -0.021 | inactive: 0 | inactive: 0.018 | inactive: -0.008 | inactive: -0.026 | inactive: 0.002 | inactive: 0.012 | inactive: -0.04 | inactive: 0.003 | inactive: 0.159 | inactive: -0.024 | inactive: 0.068 | inactive: -0.056 | inactive: 0.008 | inactive: 0.024 | inactive: -0.06
6 | TAOK2 (UniProt Q9UL54) | inactive: -0.039 | inactive: -0.041 | inactive: 0.059 | inactive: 0.021 | inactive: -0.056 | inactive: -0.077 | inactive: -0.005 | inactive: -0.003 | inactive: -0.005 | inactive: 0.109 | inactive: -0.053 | inactive: 0.046 |  | inactive: -0.001 | inactive: -0.015 | inactive: -0.033 | inactive: 0.055 | inactive: 0.02 | inactive: 0.02 | inactive: -0.009
7 | TEX264 (UniProt Q9Y6I9) | inactive: -0.053 | inactive: -0.039 | inactive: -0.005 | inactive: -0.03 | inactive: 0.069 | inactive: -0.001 | inactive: 0.652 | inactive: 0.006 | inactive: 0.024 | inactive: -0.03 | inactive: 0.103 | inactive: 0.056 | inactive: 0.086 | inactive: 0.079 | inactive: 0.47 | inactive: -0.131 | inactive: 0.06 | inactive: -0.024 | inactive: 0.063 | inactive: 0.018
8 | TET1 (UniProt Q8NFU7) | inactive: 0.257 | inactive: -0.042 | inactive: 0.061 | inactive: 0.258 | inactive: 0.094 | inactive: -0.467 | inactive: -0.701 | inactive: 0.404 | inactive: 0.104 | inactive: -0.015 | inactive: -0.303 | inactive: 0.414 | inactive: -0.059 | inactive: -0.06 | inactive: 0.63 | inactive: -0.02 | inactive: 0.028 | inactive: -0.006 | inactive: 0.096 | inactive: -0.092
9 | TFPI (UniProt P10646) | inactive: -0.079 | inactive: 0.005 | inactive: 0.015 | inactive: -0.019 | inactive: 0.016 | inactive: 0.093 | active: 0.689 | inactive: -0.321 |  | inactive: 0.167 | inactive: 0.245 | inactive: -0.012 | inactive: 0.036 | inactive: 0.056 |  | inactive: 0.072 | inactive: -0.017 | inactive: -0.003 | inactive: -0.128 | inactive: 0.061
10 | TELO2 (UniProt Q9Y4R8) | inactive: 0.063 | inactive: 0 | inactive: 0.088 | inactive: -0.073 | inactive: -0.071 | inactive: 0.048 | inactive: -0.017 | inactive: -0.043 | inactive: 0 | inactive: 0.037 | inactive: -0.01 | inactive: -0.164 | inactive: 0.035 | inactive: -0.008 | inactive: -0.036 | inactive: 0.003 | inactive: 0.139 | inactive: 0.008 | inactive: -0.009 | inactive: 0.011
11 | TBC1D10B (UniProt Q4KMP7) | inactive: 0.001 | inactive: -0.008 | inactive: -0.033 | inactive: 0.066 | inactive: -0.015 | inactive: -0.014 | inactive: 0.003 | inactive: -0.012 | inactive: -0.011 | inactive: -0.002 | inactive: -0.009 | inactive: 0.067 | inactive: 0.026 | inactive: 0.071 | inactive: -0.047 | inactive: 0.014 | inactive: -0.147 | inactive: -0.003 | inactive: -0.013 | inactive: 0.023
12 | TAMM41 isoform 3 (UniProt Q96BW9) | inactive: -0.034 | inactive: 0.103 | inactive: -0.121 | inactive: -0.016 | inactive: -0.092 | inactive: 0.069 | inactive: 0.064 | inactive: -0.009 | inactive: 0.029 | inactive: 0.009 | inactive: -0.041 | inactive: 0.116 | inactive: -0.06 | inactive: -0.02 | inactive: -0.011 | inactive: 0.007 | inactive: 0.083 | inactive: 0.011 | inactive: -0.106 | inactive: 0.032
13 | TFCP2 (UniProt Q12800) | inactive: 0.023 | inactive: 0.049 | inactive: 0.007 | inactive: -0.064 | inactive: -0.064 | inactive: 0.045 | inactive: -0.042 | inactive: -0.083 | inactive: 0.022 | inactive: -0.006 | inactive: 0.015 | inactive: -0.215 | inactive: 0.169 | inactive: 0.003 | inactive: 0.009 | inactive: 0.093 | inactive: 0.044 | inactive: 0.019 | inactive: -0.049 | inactive: -0.033
14 | TDRKH (UniProt Q9Y2W6) | inactive: 0.07 | inactive: 0.055 | inactive: 0.031 | inactive: -0.195 | inactive: -0.052 | inactive: -0.003 | inactive: -0.095 | inactive: 0.058 | inactive: -0.004 | inactive: -0.039 | inactive: -0.017 | inactive: -0.064 | inactive: 0.019 | inactive: 0.033 | inactive: 0.042 | inactive: 0.007 | inactive: 0.008 | inactive: -0.049 | inactive: 0.04 | inactive: 0.001
15 | TANGO6 (UniProt Q9C0B7) | inactive: 0.062 | inactive: -0.113 | inactive: 0.036 | inactive: 0.023 | inactive: 0.042 | inactive: -0.054 | inactive: -0.187 | inactive: 0.121 | inactive: -0.011 | inactive: 0.081 | inactive: -0.094 | inactive: -0.031 | inactive: -0.005 | inactive: -0.047 | inactive: 0 | inactive: -0.024 | inactive: -0.009 | inactive: -0.022 | inactive: 0.027 | inactive: 0.117
16 | TBC1D22B (UniProt Q9NU19) | inactive: -0.066 | inactive: -0.01 | inactive: 0.029 | inactive: 0.052 | inactive: -0.025 | inactive: -0.069 | inactive: -0.027 | inactive: -0.04 | inactive: 0.061 | inactive: 0.007 | inactive: 0.037 | inactive: 0.007 | inactive: -0.033 | inactive: 0.016 | inactive: -0.003 | inactive: 0.055 | inactive: -0.009 | inactive: 0.009 | inactive: 0.013 | inactive: -0.035

2 entries from above in another layout.

| Row | Target | log2 fold change (vemurafenib) | log2 fold change [1] | log2 fold change (barasertib) | log2 fold change [2] | log2 fold change (volasertib) | log2 fold change [3] | log2 fold change [4] | log2 fold change [5] | log2 fold change (saracatinib) | log2 fold change (sotrastaurin) | log2 fold change (alvocidib) | log2 fold change (Tubastatin A) | log2 fold change [6] | log2 fold change (defactinib) | log2 fold change [7] | log2 fold change (encorafenib) | log2 fold change [8] | log2 fold change (alisertib) | log2 fold change [9] | log2 fold change (gefitinib) |
| --- | --- | --- | --- | --- | --- | --- | --- | --- | --- | --- | --- | --- | --- | --- | --- | --- | --- | --- | --- | --- | --- |
| 9 | TFPI (UniProt P10646) | inactive: -0.079 | inactive: 0.005 | inactive: 0.015 | inactive: -0.019 | inactive: 0.016 | inactive: 0.093 | active: 0.689 | inactive: -0.321 |  | inactive: 0.167 | inactive: 0.245 | inactive: -0.012 | inactive: 0.036 | inactive: 0.056 |  | inactive: 0.072 | inactive: -0.017 | inactive: -0.003 | inactive: -0.128 | inactive: 0.061 |
| 12 | TAMM41 isoform 3 (UniProt Q96BW9) | inactive: -0.034 | inactive: 0.103 | inactive: -0.121 | inactive: -0.016 | inactive: -0.092 | inactive: 0.069 | inactive: 0.064 | inactive: -0.009 | inactive: 0.029 | inactive: 0.009 | inactive: -0.041 | inactive: 0.116 | inactive: -0.06 | inactive: -0.02 | inactive: -0.011 | inactive: 0.007 | inactive: 0.083 | inactive: 0.011 | inactive: -0.106 | inactive: 0.032 |
